“And” between values parts separate entries of the source, which are not always exact repeats. Identical values can stand only once. Residues, ends and D or L forms follow the SMILES beside them.
System: CNT1
Test: Untargeted metabolomics of Slc28a1-/- vs Slc28a1+/+ mouse urine (24 h, ad libitum)
Details: Slc28a1-/- / Slc28a1+/+

Compound	Fold Change	log2(FC)
c1ccc2c(c1)CCN2 [Indoline]	1.3203	0.4008
O=C1OC(C(O)CO)C(=O)C1=O (stereo not drawn) [Dehydroascorbic acid]	0.4128	-1.2765
C[C@]12CCC(=O)C=C1CC[C@@H]1[C@@H]2[C@@H](O)C[C@@]2(C=O)[C@H]1CC[C@]2(O)C(=O)CO [18-Oxocortisol]	19178	14.227
C[C@]12CCC(=O)C=C1CC[C@@H]1[C@@H]2CC[C@@]2(C)[C@H]1CC[C@]2(O)C(=O)CO [11-Deoxycortisol]	21.853	4.4498
CCC=CCC(O)=CC(=O)OC(CC(=O)[O-])C[N+](C)(C)C (stereo not drawn) [3-Hydroxyocta-2,5-dienoylcarnitine]	14.197	3.8275
CC(O)CC(=O)OC(CC(=O)[O-])C[N+](C)(C)C (stereo not drawn) [3-Hydroxybutyrylcarnitine]	2E-02 and 0.01605	-6.0 and -5.9611
Cc1cn([C@H]2C[C@H](O)[C@@H](CO)O2)c(=O)[nH]c1=O [Thymidine]	2.2992	1.2011
O=C1CCCC1 [Cyclopentanone]	4E-01 and 0.4495	-1.2 and -1.1538
CCCCCCC(N)C(=O)O (racemic) [DL-2-Aminooctanoic acid]	0.6841	-0.5477
CCC1=CCC(=O)O1 [5-ethyl-(3H)-furan-2-one]	4.0037	2.0013
CC=CC(=O)OC(CC(=O)[O-])C[N+](C)(C)C (stereo not drawn) [butenoylcarnitine]	1E-01 and 0.1471	-2.8 and -2.7654
NC(=O)c1cnccc1O [4-Hydroxynicotinamide]	0.5912	-0.7583
CCCCCCCC(=O)CC(=O)SCCN [S-3-oxodecanoyl cysteamine]	1.5893	0.6684
CC1=NCCO1 [2-Methyl-2-oxazoline]	0.8023	-0.3178
CCCCCC(=O)NCC(=O)O [Hexanoylglycine]	0.4503	-1.1509
CC=CCCC(O)CCCC(=O)OC(CC(=O)[O-])C[N+](C)(C)C (stereo not drawn) [5-Hydroxydec-8-enoylcarnitine]	0.1788	-2.4833
NCCC1=CC(=O)C(=O)C=C1 [Dopamine quinone]	0.7898	-0.3404

Compound	Fold Change	log2(FC)
O=C(O)CC(=O)CC(=O)O [3-Oxoglutaric acid]	0.3682	-1.4414
O=C(O)C[C@H](Nc1ncnc2c1ncn2[C@@H]1O[C@H](CO)[C@@H](O)[C@H]1O)C(=O)O [Succinyladenosine]	1.239	0.3092
Cn1cnc2c(ncn2[C@@H]2O[C@H](CO)[C@@H](O)[C@H]2O)c1=O [1-Methylinosine]	1.555	0.637
C[C@]12C=CC(=O)C=C1CC[C@@H]1[C@@H]2[C@@H](O)C[C@@]2(C)[C@H]1CC[C@]2(O)C(=O)CO [Prednisolone]	–	5.2701
CC(C)CC(=O)N[C@@H](CCC(=O)O)C(=O)O [Isovalerylglutamic acid]	1.3227	0.4035
C/C=C(/C)C(=O)O[C@H]1CN2CCC[C@H]2[C@H]1CO [Petasinine]	0.1581	-2.661
C[C@H](NC(=O)[C@@H](N)CCC(=O)O)C(=O)N[C@@H](CC(=O)O)C(=O)NCC(=O)O [glu-ala-asp-gly] (H-EADG-OH)	1.8239	0.867
Dodecenoylcarnitine	7.667	2.9387
CCCCCCCCCCCC(O)CC(=O)OC(CC(=O)[O-])C[N+](C)(C)C (stereo not drawn) [3-Hydroxytetradecanoyl carnitine]	3E+01 and 28.002	4.8 and 4.8074
CC=CCCC=CCC(=O)OC(CC(=O)[O-])C[N+](C)(C)C (stereo not drawn) [Nona-3,7-dienoylcarnitine]	0.2423	-2.045
c1ccc2cnccc2c1 [Isoquinoline]	84.403	6.3992
CC1(C)CC(O)CC(C)(C)N1[O] [4-Hydroxy-2,2,6,6-tetramethylpiperidine-1-oxyl]	0.3835	-1.3826
Cn1c(N)nc(=O)c2[nH]cnc21 [3-Methylguanine]	1.5501	0.6323
COc1cc(C(=O)NCC(=O)O)ccc1O [Vanilloylglycine]	0.6175	-0.6956
CC=CC=CC=CCCCCCC(=O)OC(CC(=O)[O-])C[N+](C)(C)C (stereo not drawn) [Trideca-7,9,11-trienoylcarnitine]	15.173	3.9235
CCCC(CCC)NC(=O)c1ccc2c(c1)OCO2 [N-(Heptan-4-yl)benzo[d][1,3]dioxole-5-carboxamide]	2.7234	1.4454

Same assay, conditions: Slc28a1-/- vs Slc28a1+/+

Compound	change of level in Slc28a1-/- mouse urine (untargeted metabolomics)
O=c1ccn([C@@H]2O[C@H](CO)[C@@H](O)[C@H]2O)c(=O)[nH]1 [uridine]	no changes
